Experimental data: PubChem BioAssay AID1508597 (Cure First, 2020)
Purpose: 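Knock-downs altering ovarian cancer cell survival with or without PARP inhibitor rucaparib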 (primary screen). Cells: human ovarian carcinoma lines grown from tumours: OCI-P5x (papillary serous) and OCI-C5x (clear cell). Reagent: siRNA pool against human genes, 1.25 pmol siRNA per well. Time to read-out: 72 h or 96 h, depending on the cell culture. Conditions: rucaparib 20 µM (about IC30) or vehicle, present until read-out. Rucaparib or vehicle: Vehicle. Cell line: OCI-P5x (serous). Measured: 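Luminescent ATP-based viability assay read 72 or 96 h after transfection, depending on culture, given as normalised percent viability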. Reading the numbers: viability, normalised: higher = more viable cells remaining. Call rule: 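a well counts as a hit if its normalised viability is under 80 percent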. Meaning of the calls: active = viability under 80%; inactive = viability 80% or more.
This is an unselected part of the about 2,100 reagents, under one of the conditions tested. 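Calls flag viability under 80% in either arm, not effects specific to rucaparib; the reference for percent is not stated.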 A reagent listed more than once was tested more than once; the source does not tell the runs apart. No sequences are given here. The record does not give: the 100% reference.

NME7 (NME/NM23 family member 7) [SID405527083], technical replicate 1 | viability, normalised (%) = 80.3; activity call = inactive
NME7 (NME/NM23 family member 7) [SID405527083], technical replicate 1 | viability, normalised (%) = 71.1; activity call = active
NME7 (NME/NM23 family member 7) [SID405527083], technical replicate 2 | viability, normalised (%) = 78.3; activity call = active
NME7 (NME/NM23 family member 7) [SID405527083], technical replicate 2 | viability, normalised (%) = 69.5; activity call = active
NME7 (NME/NM23 family member 7) [SID405527083], technical replicate 3 | viability, normalised (%) = 77; activity call = active
NME7 (NME/NM23 family member 7) [SID405527083], technical replicate 3 | viability, normalised (%) = 58.6; activity call = active
MAP3K19 (mitogen-activated protein kinase kinase kinase 19) [SID405527474], technical replicate 1 | viability, normalised (%) = 57.3; activity call = active
MAP3K19 (mitogen-activated protein kinase kinase kinase 19) [SID405527474], technical replicate 2 | viability, normalised (%) = 92.5; activity call = inactive
MAP3K19 (mitogen-activated protein kinase kinase kinase 19) [SID405527474], technical replicate 3 | viability, normalised (%) = 93.4; activity call = inactive
CLDN2 (claudin 2) [SID405528133], technical replicate 1 | viability, normalised (%) = 74; activity call = active
CLDN2 (claudin 2) [SID405528133], technical replicate 2 | viability, normalised (%) = 74.7; activity call = active
CLDN2 (claudin 2) [SID405528133], technical replicate 3 | viability, normalised (%) = 77.3; activity call = active
PRKAR2B [SID405527555], technical replicate 1 | viability, normalised (%) = 146; activity call = inactive
PRKAR2B [SID405527555], technical replicate 2 | viability, normalised (%) = 94.7; activity call = inactive
PRKAR2B [SID405527555], technical replicate 3 | viability, normalised (%) = 163; activity call = inactive
PDZD2 (PDZ domain containing 2) [SID405527725], technical replicate 1 | viability, normalised (%) = 94.4; activity call = inactive
PDZD2 (PDZ domain containing 2) [SID405527725], technical replicate 2 | viability, normalised (%) = 88.1; activity call = inactive
PDZD2 (PDZ domain containing 2) [SID405527725], technical replicate 3 | viability, normalised (%) = 86.9; activity call = inactive
PFKFB2 (6-phosphofructo-2-kinase/fructose-2,6-biphosphatase 2) [SID405528592], technical replicate 1 | viability, normalised (%) = 64.1; activity call = active
PFKFB2 (6-phosphofructo-2-kinase/fructose-2,6-biphosphatase 2) [SID405528592], technical replicate 2 | viability, normalised (%) = 62.8; activity call = active
PFKFB2 (6-phosphofructo-2-kinase/fructose-2,6-biphosphatase 2) [SID405528592], technical replicate 3 | viability, normalised (%) = 62.3; activity call = active
PRKCH (protein kinase C eta) [SID405527420], technical replicate 1 | viability, normalised (%) = 91.3; activity call = inactive
PRKCH (protein kinase C eta) [SID405527420], technical replicate 2 | viability, normalised (%) = 90.5; activity call = inactive
PRKCH (protein kinase C eta) [SID405527420], technical replicate 3 | viability, normalised (%) = 100; activity call = inactive
SQLE (squalene epoxidase) [SID405526337], technical replicate 1 | viability, normalised (%) = 78; activity call = active
SQLE (squalene epoxidase) [SID405526337], technical replicate 2 | viability, normalised (%) = 75.4; activity call = active
SQLE (squalene epoxidase) [SID405526337], technical replicate 3 | viability, normalised (%) = 88.1; activity call = inactive
CILK1 (ciliogenesis associated kinase 1) [SID405528522], technical replicate 1 | viability, normalised (%) = 67.7; activity call = active
CILK1 (ciliogenesis associated kinase 1) [SID405528522], technical replicate 2 | viability, normalised (%) = 69.8; activity call = active
CILK1 (ciliogenesis associated kinase 1) [SID405528522], technical replicate 3 | viability, normalised (%) = 62.3; activity call = active
RPL5 (ribosomal protein L5) [SID405528323], technical replicate 1 | viability, normalised (%) = 48.1; activity call = active
RPL5 (ribosomal protein L5) [SID405528323], technical replicate 2 | viability, normalised (%) = 48.3; activity call = active
RPL5 (ribosomal protein L5) [SID405528323], technical replicate 3 | viability, normalised (%) = 48.9; activity call = active
